Like-named read-outs stand apart in the source and are kept apart here. These are yes or no findings as the source states them, for the method shown. Binding calls can cover weak binding; strength is not graded here. Sequences can lack the tags named with a protein. For part of these data: Binding seen in cells or lysates may run through a third protein.
B1: DivIB-FLAG (protein, UniProt P16655 1-263)
chain: MNPGQDREKIVNIEERIPKIKEQRKQKANRRLISFIMLFFIMVLIIVYLQTPISKVSTISVTGNENVSKKEIIDLSDINSGDTEFWSLDKQKTEKKIQQNKLVKKAEISKSLPNKINIAIEEYKAIAYLEKDDVYYEVLENGSVLPNEVTPDDAGPILVNWTNAKKRSQMAKQLDALSNSLKQSISEIYYTPVKMDENRIKLYMNDGYVVTASIKTFADRMKTYPSIISQLSSNKKGIIHLEVATYFEEFGKNDKAAKKEDEN
B2: Bacillus subtilis DivIB (BACTH fusion) (protein, UniProt P16655 1-263)
chain: B1 chain
B3: Bacillus subtilis FtsL (BACTH fusion) (protein, UniProt Q07867 1-117)
chain: MSNLAYQPEKQQRHAISPEKKVIVKKRASITLGEKVLLVLFAAAVLSVSLLIVSKAYAAYQTNIEVQKLEEQISSENKQIGDLEKSVADLSKPQRIMDIAKKNGLNLKDKKVKNIQE
B4: Bacillus subtilis DivIC (BACTH fusion) (protein, UniProt P37471 1-125)
chain: MNFSRERTITEIQNDYKEQVERQNQLKKRRRKGLYRRLTVFGALVFLTAIVLASSVWSQTSSLSAKEEKKEQLEKELKSLKTKQTDLKEEISKLKDEDYVTELARRDLFMSGDGEIIFNVEKKSK

How the values were obtained:
[1] = molecular target: GFP-PBP2B-ΔPASTA (Bacillus subtilis); assay: co-IP
[2] = molecular target: Bacillus subtilis PBP2B-ΔPASTA (BACTH fusion) (Bacillus subtilis 168); assay: two-hybrid
[3] = molecular target: Bacillus subtilis PBP2B-ΔPASTA (BACTH fusion) (Bacillus subtilis 168); assay: two-hybrid; remark: listed apart in the source

Row | binding [1] | binding [2] | binding [3] | Binder
1 | binds | – | – | B1
2 | – | binds | binds | B2
3 | – | binds | binds | B3
4 | – | – | no binding | B4

Reference: paper doi:10.1101/713677
